The values that follow come from PubChem BioAssay AID258 (DTP/NCI, 2004).

The subject of this assay is CD2F1 mice, L1210 leukemia sc, survival T/C. Nature of the assay: NCI In Vivo Anticancer Drug Screen. Data for tumor model L1210 Leukemia (subcutaneous) in CD2F1 (CDF1) mice. As to conditions: T/C endpoint: median survival time, higher T/C = longer survival. In outline: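 Antitumor activity is scored in tumor-bearing mice by comparing survival or tumor size of treated animals against vehicle-treated controls, reported as T/C.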

Setting [1] is: dose: 20.0 mg/kg/injection, schedule: Q01DX009 (sc), vehicle: saline.

The list is a part of this screen's results and no random one: it gathers tests that were run many times, whatever their T/C, doses with no T/C, and many T/C values between a quarter and a half above the control. Other doses and runs of a compound stand elsewhere. T/C is the treated group as % of the vehicle group. Some entries give survivors of the animals treated and no T/C: the source files T/C as zero there, which appears to mark a toxic dose or a test without result, not a measured value. Some doses without a T/C left all or most animals alive at the check, yet need not have been tolerated: survival well below the control is almost never listed, so the zero probably covers shortened survival too. Counts of survivors are from the toxicity check (mostly the fifth day) where no day follows; animals may have died later. Schedule codes are those of the source, read here as Q, the interval in days (D) or hours (H), X, the number of doses. Some schedule codes hold Z or #, which are not explained here. Where survival is the endpoint, this PubChem deposit counts one and a half times the control or more as active, and values a quarter to a half above the control carry no call in these data; other NCI protocols may use other cut-offs. Some entries hold several experiments; the results are listed from low to high. Some T/C values are followed by the survivors on the day toxicity was checked, most often the fifth; where none is given, no animal had died by that day.

Regarding `Nc1ncn(C2OC(CO)C(O)C2O)c(=O)n1` (centres undefined), the survivor count (dose: 0.2 mg/kg/injection, schedule: Q01DX009 (sc), vehicle: saline) is 3 of 10 and the survivor count (dose: 9.6 mg/kg/injection, schedule: Q01DX009 (ip), vehicle: saline) is 10 of 10. The T/C reads like this: (dose: 0.8 mg/kg/injection, schedule: Q01DX009 (ip), vehicle: saline) 134 % of control; (dose: 0.8 mg/kg/injection, schedule: Q01DX009 (sc), vehicle: saline) 137 % of control; (dose: 2.1 mg/kg/injection, schedule: Q01DX009 (sc), vehicle: saline) 138 % of control; (dose: 2.4 mg/kg/injection, schedule: Q01DX009 (ip), vehicle: saline) 145 % of control; (dose: 3.2 mg/kg/injection, schedule: Q01DX009 (ip), vehicle: saline, evaluated on day 30) 167 and 185 % of control; (dose: 3.2 mg/kg/injection, schedule: Q01DX009 (ip), vehicle: saline, evaluated on day 45) 168 and 197 % of control. Besides, the T/C is 157 and 243 % of control (dose: 3.2 mg/kg/injection, schedule: Q01DX009 (sc), vehicle: saline, evaluated on day 30); 142 and 143 % of control (dose: 3.2 mg/kg/injection, schedule: Q01DX009 (sc), vehicle: saline, evaluated on day 45); 198 % of control (dose: 4.8 mg/kg/injection, schedule: Q01DX009 (ip), vehicle: saline, evaluated on day 30); 92, 216, 244 % of control (dose: 4.8 mg/kg/injection, schedule: Q01DX009 (ip), vehicle: saline, evaluated on day 45); 162 % of control (dose: 4.8 mg/kg/injection, schedule: Q01DX009 (sc), vehicle: saline, evaluated on day 30); 144, 168, 198 % of control (dose: 4.8 mg/kg/injection, schedule: Q01DX009 (sc), vehicle: saline, evaluated on day 45). In addition, the T/C is 142 % of control (dose: 7.2 mg/kg/injection, schedule: Q01DX009 (ip), vehicle: saline); 154 % of control (dose: 9.6 mg/kg/injection, schedule: Q01DX009 (sc), vehicle: saline, evaluated on day 30); 90 and 136 % of control (dose: 9.6 mg/kg/injection, schedule: Q01DX009 (sc), vehicle: saline, evaluated on day 45); 142 % of control (dose: 9.6 mg/kg/injection, schedule: Q01DX009 (sc), vehicle: saline, evaluated on day 60); 129 % of control (dose: 14.4 mg/kg/injection, schedule: Q01DX009 (sc), vehicle: saline, evaluated on day 30); 140 % of control (dose: 14.4 mg/kg/injection, schedule: Q01DX009 (sc), vehicle: saline, evaluated on day 60). In addition, the T/C (dose: 19.2 mg/kg/injection, schedule: Q01DX009 (sc), vehicle: saline) is 125 % of control.
For the compound `c1ccc(CNc2ncnc3[nH]ncc23)cc1`, the survivor count (dose: 180.0 mg/kg/injection, schedule: Q01DX Z (sc), vehicle: methylcellulose (MC)) is 0 of 10.
With `Nc1nc2n[nH]nc2c(=O)[nH]1`, the T/C (dose: 25.0 mg/kg/injection, schedule: Q01DX009 (sc), vehicle: saline) is 125 % of control.
As for `C[C@@](O)(/C=C/[C@H]1CC=CC(=O)O1)[C@@H](C[C@@H](O)\C=C/C=C\C=C\CO)OP(=O)(O)O`, the T/C (dose: 12.5 mg/kg/injection, schedule: Q01DX009 (ip), vehicle: other) is 130 % of control. The survivor count by setting is: (dose: 25.0 mg/kg/injection, schedule: Q01DX009 (ip), vehicle: other) 0 of 10; (dose: 50.0 mg/kg/injection, schedule: Q01DX009 (ip), vehicle: other) 0 of 10.
Regarding `O=c1[nH]c(=O)n(C2CC(O)C(CO)O2)cc1C(F)(F)F` (centres undefined), the T/C was 143 % of control (dose: 20.0 mg/kg/injection, schedule: Q01DX009 (ip), vehicle: saline with Tween-80, evaluated on day 30); 133 % of control (dose: 20.0 mg/kg/injection, schedule: Q01DX009 (ip), vehicle: saline with Tween-80, evaluated on day 45); 131 % of control (dose: 20.0 mg/kg/injection, schedule: Q01DX009 (sc), vehicle: saline with Tween-80); 143 % of control under setting [1]; 134 % of control (dose: 27.0 mg/kg/injection, schedule: Q01DX009 (ip), vehicle: saline with Tween-80); 131 % of control (dose: 30.0 mg/kg/injection, schedule: Q01DX009 (sc), vehicle: saline with Tween-80). In addition, the T/C is 143 % of control (dose: 40.0 mg/kg/injection, schedule: Q01DX009 (ip), vehicle: saline with Tween-80); 145 % of control (dose: 40.0 mg/kg/injection, schedule: Q01DX009 (sc), vehicle: saline with Tween-80); 145 % of control (dose: 40.0 mg/kg/injection, schedule: Q01DX009 (sc), vehicle: saline); 127 [8 of 10 alive] and 148 % of control (dose: 80.0 mg/kg/injection, schedule: Q01DX009 (sc), vehicle: saline, evaluated on day 30); 130 % of control (dose: 80.0 mg/kg/injection, schedule: Q01DX009 (sc), vehicle: saline, evaluated on day 45); 137 % of control (dose: 150.0 mg/kg/injection, schedule: Q01DX009 (sc), vehicle: saline with Tween-80). The T/C runs as follows: (dose: 160.0 mg/kg/injection, schedule: Q01DX009 (sc), vehicle: saline, evaluated on day 30) 143 % of control; (dose: 160.0 mg/kg/injection, schedule: Q01DX009 (sc), vehicle: saline, evaluated on day 45) 128 % of control; (dose: 210.0 mg/kg/injection, schedule: Q01DX009 (sc), vehicle: saline) 149 % of control; (dose: 270.0 mg/kg/injection, schedule: Q01DX009 (sc), vehicle: saline) 149 % of control; (dose: 320.0 mg/kg/injection, schedule: Q01DX009 (sc), vehicle: saline with Tween-80) 147 % of control; (dose: 320.0 mg/kg/injection, schedule: Q01DX009 (sc), vehicle: saline, evaluated on day 30) 134 % of control. Further, the T/C reads like this: (dose: 320.0 mg/kg/injection, schedule: Q01DX009 (sc), vehicle: saline, evaluated on day 45) 142 % of control; (dose: 480.0 mg/kg/injection, schedule: Q01DX009 (sc), vehicle: saline with Tween-80, evaluated on day 30) 143 % of control; (dose: 480.0 mg/kg/injection, schedule: Q01DX009 (sc), vehicle: saline with Tween-80, evaluated on day 45) 143 % of control; (dose: 640.0 mg/kg/injection, schedule: Q01DX009 (sc), vehicle: saline with Tween-80) 137 % of control. Besides, the survivor count under setting [1] was 5 of 10.
